Laboratory results: PubChem BioAssay AID1224830 (NIAID, 2016)
Here is an unselected part of about 18,000 reagents tested. Of all reagents, about 2,900 (16%) are marked active. 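Calls are made per well; low scores hint the gene aids the LPS response, high scores that it dampens it.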 Entries without a mark were called inactive. Repeated entries: four replicate wells of each siRNA pool. Reagent sequences are not shown.

Test: 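Host factors that control LPS-induced TNF expression in human macrophages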 (primary screen)
System: human THP-1 monocytic leukaemia cells, TNF dual-luciferase reporter clone, PMA-differentiated to macrophage-like cells
Knock-down reagent: siRNA pool against human genes, 50 nM
Duration: LPS for 4 h, given about 3 days after siRNA transfection
Conditions: bacterial LPS (TLR4 ligand), 10 ng/ml
Detection: 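TNF firefly reporter luminescence divided by renilla, normalised to the plate median, then turned into a robust z-score for each replicate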
Scale: TNF reporter robust z-score: higher = stronger TNF reporter response to LPS
Hit rule: 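a well is active when its z-score exceeds 2.8 or falls below -1.5; control wells carry no call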

no.	Target gene	TNF reporter robust z-score
1	PHTF1	22.1 (active)
2	PHTF1	1.19
3	PHTF1	-0.47
4	PHTF1	0.79
5	ZNF684	-0.83
6	ZNF684	-1.65 (active)
7	ZNF684	-1.54 (active)
8	ZNF684	-1.61 (active)
9	SUN3	1.4
10	SUN3	2.49
11	SUN3	1.6
12	SUN3	4.01 (active)
13	RGS12	0.64
14	RGS12	0.94
15	RGS12	-0.15
16	RGS12	0.74
17	ATAD3C	0.3
18	ATAD3C	0.95
19	ATAD3C	0.16
20	ATAD3C	0.89
21	TUFT1	0.37
22	TUFT1	0.51
23	TUFT1	0.63
24	TUFT1	-0.6
25	HOOK3	-0.18
26	HOOK3	1.25
27	HOOK3	-0.58
28	HOOK3	0.92
29	PSMD9	-0.82
30	PSMD9	-0.03
31	PSMD9	-0.54
32	PSMD9	1.47
33	SARM1	1.98
34	SARM1	2.5
35	SARM1	0.6
36	SARM1	0.33
37	ACAT1	2.07
38	ACAT1	2.32
39	ACAT1	6.85 (active)
40	ACAT1	0.36
41	TMEM47	-0.41
42	TMEM47	-0.04
43	TMEM47	-0.49
44	TMEM47	0.21
45	STPG1	-0.29
46	STPG1	0.5
47	STPG1	1.36
48	STPG1	0.37
49	FAR2	-0.92
50	FAR2	-0.85
51	FAR2	-0.64
52	FAR2	-0.15
53	STAG3L3	1
54	STAG3L3	0.98
55	STAG3L3	-0.06
56	STAG3L3	2.46
57	HPCA	0.14
58	HPCA	-0.8
59	HPCA	-0.49
60	HPCA	-1
61	STX7	2.94 (active)
62	STX7	0.74
63	STX7	0.02
64	STX7	0.28
65	CHRNA3	-0.07
66	CHRNA3	-0.28
67	CHRNA3	0.02
68	CHRNA3	-0.97
69	KMT2E	-0.38
70	KMT2E	-0.05
71	KMT2E	-1.13
72	KMT2E	-0.83
73	KLHL40	-0.36
74	KLHL40	0.09
75	KLHL40	-0.42
76	KLHL40	0.75
77	MAP2K5	4.89 (active)
78	MAP2K5	2.59
79	MAP2K5	1.1
80	MAP2K5	2.49
81	SEC16A	-0.52
82	SEC16A	-0.75
83	SEC16A	-0.32
84	SEC16A	0.35
85	SCN2A	-0.16
86	SCN2A	-0.62
87	SCN2A	0.42
88	SCN2A	-1.13
89	TMED10	-1.82 (active)
90	TMED10	-1.76 (active)
91	TMED10	-1.73 (active)
92	TMED10	-1.88 (active)
93	ONECUT3	-0.72
94	ONECUT3	-0.32
95	ONECUT3	-0.51
96	ONECUT3	-0.26
97	KCNV2	2.5
98	KCNV2	0.06
99	KCNV2	0.11
100	KCNV2	-0.03
101	IL20RB	1.48
102	IL20RB	1.72
103	IL20RB	-0.85
104	IL20RB	-0.67
105	HCG27	-0.47
106	HCG27	0.8
107	HCG27	0.7
108	HCG27	0.47
109	FLI1	-0.49
110	FLI1	-0.07
111	FLI1	-0.57
112	FLI1	-0.26
113	SYNE4	-1.52 (active)
114	SYNE4	-0.64
115	SYNE4	0.28
116	SYNE4	-0.9
117	NECAB1	0.37
118	NECAB1	0.75
119	NECAB1	0.55
120	NECAB1	1.87
121	PLP1	1.22
122	PLP1	1.47
123	PLP1	1.07
124	PLP1	0.15
125	SLC14A1	-0.06
126	SLC14A1	0.78
127	SLC14A1	0.41
128	SLC14A1	1.09
129	PAFAH1B2	-0.09
130	PAFAH1B2	-0.48
131	PAFAH1B2	-0.6
132	PAFAH1B2	0.17
133	XRCC3	-0.44
134	XRCC3	-0.48
135	XRCC3	0.96
136	XRCC3	0.4
137	EID2	0.98
138	EID2	0.18
139	EID2	0.07
140	EID2	-0.22

Reagents above marked active, once more:
Target gene	TNF reporter robust z-score
PHTF1	22.1 (active)
ZNF684	-1.65 (active)
ZNF684	-1.54 (active)
ZNF684	-1.61 (active)
SUN3	4.01 (active)
ACAT1	6.85 (active)
STX7	2.94 (active)
MAP2K5	4.89 (active)
TMED10	-1.82 (active)
TMED10	-1.76 (active)
TMED10	-1.73 (active)
TMED10	-1.88 (active)
SYNE4	-1.52 (active)
